Results from paper PMC5760199.

Experiments:
Assay in all cases: fluorescence polarization
Conditions in all cases: 20 mM Tris pH 7.5, 150 mM NaCl, 1 mM DTT, 0.05% Tween 20, 25 C, 0.1 nM labelled RNA, recombinant protein, label: 5' Atto532
[1] = test system: CPSF160FL + WDR33 M1-K410 + CPSF30 ZF1
[2] = test system: CPSF160FL + WDR33 M1-K410
[3] = test system: CPSF160FL + WDR33 M1-K410 + CPSF30 ZF1-2

| Sequence | Kd ([1]; n.m. (Kd >>1 uM)) [nM] | Kd ([2]; no CPSF30, n.m. (Kd >>1 uM)) [nM] | Kd ([3]; n.m. (Kd >>1 uM)) [nM] | Kd [1] [nM] | Kd ([2]; no CPSF30) [nM] | Kd [3] [nM] |
| --- | --- | --- | --- | --- | --- | --- |
| CACACAAGAAAGGCAA [L3 PAS RNA mutant (AAGAAA)] | > 1000 | > 1000 | > 1000 |  |  |  |
| CACACAAUAAAGGCAA [L3 PAS RNA wild-type (AAUAAA)] |  |  |  | > 200 | > 200 | > 200 |

For part of these data: For at least one entry, the source does not settle the construct or the ends of the probe.
